From patent US20260234146A1, “Use of Hypoxia-Inducible Factor-Prolyl Hydroxylase Inhibitor (HIF-PHI) in Rare Anemia” (Kind Pharmaceutical, priority 2023, published 2026)
For at least one compound, name, drawing or mass did not settle the structure.

Test system: Townes SCD model mouse
Experiment: Effect on SCD anemia mice (RBC, Hb, HCT)
Assay type: in vivo
Conditions: 30 mpk, oral gavage, TIW, four weeks
Experimental: Throughout the experimental stage, animals were housed in cages in an animal room with 24-hour continuous central air conditioning, temperature set at 20-26° C., relative air humidity set at 40-70%, and a 12-hour light/dark cycle. All animals had free access to food and sterilized drinking water. The animal strain was B6·Cg-Hbb^tm2(HBG1,HBB)Tow/Hbat^ml(HBA)Tow/ShmtJ mice, a Townes SCD model mouse where mouse endogenous hemoglobin is replaced by knocked-in human hemoglobin. Two weeks after birth, mice were ear-punched for identification, and the ear tissue was collected for PCR analysis to determine its genotype. Mice confirmed as B6·Cg-Hbb^tm2(HBG1,HBB)Tow/Hbat^ml(HBA)Tow/ShmtJ were grouped. […] Blood sampling was performed every other week. Mice showing symptoms of anemia were selected for dosing. Animals were randomly divided into groups, 6 animals per group: Vehicle control group (0.1 M meglumine aqueous solution; oral gavage; volume: 6.67 mL/kg), Comp-1 group (30 mpk; oral gavage; volume: 6.67 mL/kg), and EPO group (50 U/30 g body weight; SC injection; MyBioSource, cat. #: MBS650094, erythropoietin alpha). Dosing was administered three times a week (TIW) for 4 consecutive weeks. On days 14 and 28 of dosing, 70 μL of blood was collected from orbit. […] RBC, Hb, and HCT in the blood were measured according to the instrument's operating instructions. […]

O=C(O)CNC(=O)C1C(=O)N(C2CCCCC2)C(=O)N(C2CCCCC2)C1=O [Daprodustat, reference compound]
Improvement of RBC, Hb, and HCT: mildly improved RBC, Hb, and HCT
